About 210 (0.4%) of roughly 52,000 sequences were called active.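 Rule for the calls: active = gene whose silencing raises cell survival under the drug, median off-target-corrected z-score across its silencing RNAs 2 or more; inactive = the rest.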 The list shows a part of the results.

The experiment is described as follows: Resistance to Poly (ADP-Ribose) Polymerase inhibitor: Gene Identification via Genome-wide siRNA Screen. To be noted: mouse BRCA2 R2336H ES cells, olaparib, CellTiter-Glo viability; stronger effect = higher value. In short, it runs like this:
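Genome-wide siRNA screen (3 siRNAs/gene, 20 nM) in mouse ES cells carrying hypomorphic BRCA2 R2336H; olaparib 500 nM added 48 h post-transfection, CellTiter-Glo viability 72 h later. Normalized to plate-median negative control; MAD z-scores, gene median, seed-adjusted.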
In the case of GGUAUUAAACACCAGCUCUTT against Nsfl1c, the z-score is inactive: 0.0649.

Consider GGACCAGGAUCAGUUGAUCTT against Olfr1406, for which the z-score is inactive: 0.717.

For CGGACAAAGGACGAGUGUUTT against BC032265, the z-score was inactive: -3.

As for “CCUUGGAAUUCAUCAACGGTT against 4930432O21Rik”, the z-score is inactive: -0.295.

As to “GGAAUUAGAGACUGCGGAATT against 4930566A11Rik”, the z-score is inactive: 1.36.

Consider “CCACAUACAUUUCACAGGGTT against 1810019J16Rik”, for which the z-score was inactive: -0.517.

As to “CCACUGGCUACCACAUGUUTT against 9330151E16Rik”, the z-score was inactive: -0.222.

Turning to CCAUGAUCGCUAGUGAAGCTT against Mrpl24, the z-score is inactive: -1.2.

For GGGUAUCAACCACUUUUUUTT against Serping1, the z-score is inactive: 0.572.

Regarding GGGCACACACUUCAAUUUUTT against Sap18, the z-score was inactive: 1.66.

Consider GGAUAUGAAACAAUAACAGTT against Arid5b, for which the z-score is inactive: 0.223.

In the case of GCAGUGGAAGUGAAUCUCGTT against BC016198, the z-score was inactive: 1.95.

As to “GGAGAUAUAAUCAGUGUGGTT against 0710007A14Rik”, the z-score is inactive: -0.327.

GGAACUGAUGAAUAUUUCATT against Chrnb1: the z-score is active: 0.177.

On to CCUACAACUCAGCGCAUGATT against Ptgs1, for which the z-score is inactive: 0.526.

CGGCUGACUACAUUUCAAGTT against Camk4: the z-score is inactive: -1.24.

On to GCAAAUGUAAUGGUGAAAGTT against Cldn1, for which the z-score is inactive: 0.948.

As for GGAAUCUUCUCAGCUUAAUTT against Slc17a2, the z-score was inactive: 0.117.

Regarding GGGAAACUCCAGUUCAAAGTT against Zfp238, the z-score was inactive: -0.172.

Turning to GCCGGAAUCAGUGAAAGGCTT against Fln29, the z-score is inactive: -0.301.

As for GGUCUUUCCGGCAGUUCUUTT against Rxrg, the z-score is inactive: -2.09.

On to GGGCAAUCUGAGCAAUUGUTT against Wnt7b, for which the z-score was inactive: -1.1.

In the case of “CCUAUAGCUUCGGCAAGACTT against B930074I24”, the z-score was inactive: 0.513.

For the sequence GGGAAGGAUUUUUGAUGAUTT against Arfgap1, the z-score is inactive: 1.46.

As to “GGUGGGCCUUUGUCUCAACTT against 4833441J24Rik”, the z-score was inactive: -0.116.

With CGGCUCACUAGCAGUGUCUTT against Ppm1b, the z-score is inactive: 1.5.

As for GGCCAUUAACAGCAGUCUGTT against Kifc1, the z-score is inactive: -2.66.

As for “GGAGAAACUUCUUUAAAGCTT against 5830427D03Rik”, the z-score was inactive: 0.725.

Turning to GGUCUGUGACGAGAAGCUATT against Rab4a, the z-score was inactive: -1.24.

As for CCAAAUAUUACAAACUCGGTT against Sgk, the z-score is inactive: 0.652.

Turning to GGAUCAGUACCUGUGAUGGTT against Adamdec1, the z-score is inactive: -0.51.

For the sequence GGAAGAGGACAACCAGCUCTT against Kai1, the z-score was inactive: -1.09.

As for “GGUUCUUUUCAGCUCAUUATT against 4930547C10Rik”, the z-score is inactive: -1.32.

Consider “GGAGAUUAACAAGUGGUGGTT against D16Ertd607e”, for which the z-score was inactive: -0.0996.

With “GGAGAAAGUCUACCUGAGCTT against C630028F04Rik”, the z-score is inactive: -1.14.

GGCAGAACACUGAAAGGGATT against Mrps11: the z-score is inactive: -0.109.

Turning to GGGACAACCCAUCAACAAUTT against Catsper1, the z-score was inactive: 1.1.

In the case of GGAUAAACGGACAGGCCCATT against Socs2, the z-score is inactive: 0.465.

GCCUUUCGAUUCUAAUUGCTT against Fkbp6: the z-score is inactive: -0.0166.

CCAAUGUGCUCAUGCUCUATT against Nodal: the z-score is inactive: -1.98.

“GCUCUCUGACCUUGAUUGGTT against 0910001K20Rik”: the z-score was inactive: 0.0905.

Consider “CCAGAUCCUAAAGUCUUUATT against 4931412G03Rik”, for which the z-score is inactive: 0.0284.

Turning to CGAGAACCCUGACAUAAUCTT against Ddx54, the z-score is inactive: -1.11.

For GCCACAAAUCGAAUCUUACTT against Zfp146, the z-score was inactive: 0.652.

Consider GGAGACGAAUCCUUUCAGUTT against Misc12, for which the z-score was inactive: 0.0807.

In the case of “GGAGGAUGGCUUUACCGCATT against 2210008I11Rik”, the z-score was inactive: 0.56.

For GGAUCAUGGUCCUGUCUUUTT against Rlbp1, the z-score was inactive: 0.0172.

For the sequence GGUUCAUAGUCUGUUAUGATT against Skd3, the z-score is inactive: 0.236.

Regarding “GCUCGAAGAAAGGCCCUGATT against B430306N03Rik”, the z-score is inactive: -1.71.

Turning to GGAUGAUACUUCAUUACACTT against Ankrd12, the z-score was inactive: -0.613.

For the sequence GGGAGACUCUCAUUUAAAUTT against Casp3, the z-score was inactive: -0.207.

As to “GGGAUAAAGGCACUUUGUATT against 4732435N03Rik”, the z-score is inactive: -1.47.

Turning to “GCAGACUUACAUCCGGAAGTT against 1110037P11Rik”, the z-score is inactive: -0.657.

Regarding CCUGGCAGAUGGAUUCGUATT against Kif6, the z-score was inactive: -0.935.

For GCUCGUACAUCUAUGGCUATT against Psmb6, the z-score was inactive: -3.

Take GGGAAGAUCAGCUUUCAUATT against Pak1ip1: the z-score is inactive: -0.291.

Take “GGGAAAAAGAACAAGAUCATT against 2410017P07Rik”: the z-score is inactive: 0.591.

Regarding CCACGUCCUAAGAGACAUUTT against Eps8l3, the z-score was inactive: -0.96.

As for GGAGAACAGUUUCAAGAUGTT against Rnf152, the z-score is inactive: 1.09.

Turning to GGACCUGACCUUGCUGUUATT against Fancg, the z-score is inactive: 2.31.

For the sequence GGACAAAACCAUCUCCUUCTT against Olfr17, the z-score is inactive: 0.251.

“GGAGCUCAUAUACACCUGCTT against 2810481F14Rik”: the z-score is inactive: -0.373.

Regarding GGAAUGGAACACAAAUAGCTT against Kdelr2, the z-score is inactive: 0.105.

As for GGAGUUCACUGUGCUGAUGTT against Cxcl7, the z-score is inactive: -1.02.

For the sequence GGUAUUAUGACCAGAUUAUTT against Plxnb3, the z-score was inactive: -1.86.

Turning to GGAGAUUCGGAAAAUGUGUTT against D8Wsu151e, the z-score is inactive: 0.552.

The record behind these values is PubChem BioAssay AID1347423 (Functional Genomics Laboratory (NCATS/FGL), 2020).
